# Experimental data: PubChem BioAssay (NCATS)
# The shares of active, inactive and inconclusive entries below differ from those in the screen. For part of these data: A potency beside an inconclusive call is a rough fit, not a confirmed value. Active and inactive are the calls of the source. Unless noted, calls come from the whole dose curve; as a rule, active = well fitted curve in the direction sought with a large enough effect; inconclusive = small, poorly fitted or top-dose-only effect, or another doubt; inactive = no such curve, though single readings can be large; an effect the other way counts as inactive or inconclusive.
# Key:
# [1] = Quantitative High-Throughput drug screen in 47 multiple myeloma cell lines against the NCATS MIPE library collection: UTMC2_PLB cell viability assay (AID 1919868); settings: CellTiter-Glo ATP luminescence, 48 h; series mostly up to 45.8 µM; note: nearly all actives have a fitted effect of over 55% in size
# Procedure, shortened: (§1)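 Myeloma cells (500/well) treated with MIPE 4.0 compounds for 48 h at 37 °C, 5% CO2. Viability read as ATP via CellTiter-Glo luminescence after 5 min at RT; DMSO-only wells = 100%, media-only = 0% viability.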
# [2] = Quantitative High-Throughput drug screen in 47 multiple myeloma cell lines against the NCATS MIPE library collection: RPMI8226_ATCC cell viability assay (AID 1919871); settings: RPMI8226 myeloma viability, CellTiter-Glo ATP luminescence, 48 h; viability (% of control): at 45.8 µM (top of the series); note: nearly all actives have a fitted effect of over 30% in size
# Procedure, shortened: as §1
# [3] = qHTS for identification of novel therapeutic agents for treatment of microphthalmiaassociated transcription factor (MiT) renal cell carcinoma (RCC) (AID 1963991; calls by dose curve); settings: TFE3-RCC UOK109 viability, CellTiter-Glo, 48 h; active = Z-AUC below -0.8 in all three lines
# Procedure, shortened: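 UOK109/UOK124/UOK145 (TFE3 fusions, three partners); 500 cells/well; MIPE v4.0, 1912 cpds, 11 conc.; 48 h, 37 C; CellTiter-Glo, 15 min RT; lum. Norm.: DMSO 100%, empty 0%.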
# [4] = Quantitative High-Throughput drug screen in 47 multiple myeloma cell lines against the NCATS MIPE library collection: PE2_PLB cell viability assay (AID 1919869); settings: PE2_PLB myeloma cells viability, ATP luminescence, 48 h; viability (% of control): at 45.8 µM (top of the series); note: nearly all actives have a fitted effect of over 35% in size
# Procedure, shortened: as §1
# [5] = Quantitative High-Throughput drug screen in 47 multiple myeloma cell lines against the NCATS MIPE library collection: KMS11_JCRBsus cell viability assay (AID 1919873); settings: KMS11 myeloma viability, CellTiter-Glo ATP luminescence, 48 h; series mostly up to 45.8 µM; note: nearly all actives have a fitted effect of over 50% in size
# Procedure, shortened: as §1
# [6] = Quantitative High-Throughput drug screen in 47 multiple myeloma cell lines against the NCATS MIPE library collection: OPM2_DSMZ cell viability assay (AID 1919872); settings: OPM2 myeloma viability, CellTiter-Glo ATP luminescence, 48 h; series mostly up to 45.8 µM; note: nearly all actives have a fitted effect of over 30% in size
# Procedure, shortened: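 Approved and investigational drugs from MIPE 4.0 were added by pin tool to 500 cells per well. After 48 hours at 37C, ATP-based CellTiter-Glo luminescence indicated remaining viability.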
# [7] = Quantitative High-Throughput drug screen in 47 multiple myeloma cell lines against the NCATS MIPE library collection: KMS28BM_JCRB cell viability assay (AID 1919874); settings: CellTiter-Glo ATP, 48 h; series mostly up to 45.8 µM; note: nearly all actives have a fitted effect of over 35% in size
# Procedure, shortened: as §1
# [8] = qHTS profiling for inhibitors of Plasmodium falciparum proliferation (AID 504749); note: nearly all actives have a fitted effect of over 60% in size; settings: P. falciparum in erythrocytes, SYBR Green DNA, 72 h; Potency: parasite line B unless noted; series mostly up to 28.7 µM
# Procedure, shortened: (§2)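 P. falciparum-infected erythrocytes (0.3% parasitemia, 2.5% hematocrit final) were exposed to compounds for 72 h at 37 C in 5% CO2, then lysed with SYBR Green buffer overnight at room temperature; parasite DNA fluorescence was normalized to artemisinin and DMSO controls.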
# 7G8 = assay: as above; settings: P. falciparum in erythrocytes, SYBR Green DNA, 72 h; series mostly up to 28.7 µM
# Procedure, shortened: as §2
# [9] = Quantitative High-Throughput drug screen in 47 multiple myeloma cell lines against the NCATS MIPE library collection: PCM6_Riken cell viability assay (AID 1919870); settings: CellTiter-Glo ATP, 48 h; series mostly up to 45.8 µM; note: nearly all actives have a fitted effect of over 30% in size
# Procedure, shortened: as §1
# Potency is the fitted concentration of half-maximal effect.
structure (smiles),measurement,setting,value
C[C@H]1O[C@@H](n2cc(F)c(=O)[nH]c2=O)[C@H](O)[C@H]1O,Potency,[1],"inconclusive: 0.296 µM [cytotoxic, full curve, poor fit]"
same,Potency,[2],active: 9.35 µM
same,Potency,[3],"inconclusive: 20.9 µM [partial curve, poor fit]"
C=CCn1c(=O)c2cnc(Nc3ccc(N4CCN(C)CC4)cc3)nc2n1-c1cccc(C(C)(C)O)n1,Potency,[4],active: 0.235 µM
same,Potency,[5],active: 0.264 µM
same,Potency,[3],active: 0.235 µM
O=c1ncn2nc(Sc3ccc(F)cc3F)ccc2c1-c1c(Cl)cccc1Cl,Potency,[1],"inconclusive: 4.69 µM [cytotoxic, full curve, poor fit]"
same,Potency,[6],inconclusive: 0.001 µM [cytotoxic]
Cc1c(CN2CCN(S(C)(=O)=O)CC2)sc2c(N3CCOCC3)nc(-c3cnc(N)nc3)nc12,Potency,[5],"inconclusive: 0.0066 µM [cytotoxic, full curve]"
same,Potency,[3],active: 0.0833 µM
Cc1cccc(Nc2nc(N[C@@H]3CCCC[C@H]3N)ncc2C(N)=O)c1,Potency,[2],"inconclusive: 33.2 µM [cytotoxic, single point]"
same,Potency,[6],"inconclusive: 29.6 µM [cytotoxic, single point]"
same,Potency,[7],"inconclusive: 33.2 µM [cytotoxic, single point]"
same,Potency,[3],"inconclusive: 5.26 µM [falling, partial curve]"
CCc1c2c(nc3ccc(OC(=O)N4CCC(N5CCCCC5)CC4)cc13)-c1cc3c(c(=O)n1C2)COC(=O)[C@]3(O)CC,Potency,[6],"inconclusive: 6.62 µM [cytotoxic, partial curve]"
same,Potency,[5],"inconclusive: 0.332 µM [cytotoxic, full curve]"
same,Potency,[3],"inconclusive: 11.8 µM [falling, partial curve]"
same,Potency,[8],"inconclusive: 17.8 µM [inhibitor, single point]"
same,Potency,7G8,"inconclusive: 20 µM [inhibitor, single point]"
CCn1c(-c2nonc2N)nc2c(C#CC(C)(C)O)ncc(OC[C@H]3CCCNC3)c21,Potency,[9],active: 14.8 µM
same,Potency,[2],"inconclusive: 3.32 µM [cytotoxic, partial curve]"
same,Potency,[6],"inconclusive: 18.7 µM [cytotoxic, partial curve]"
same,Potency,[7],active: 0.372 µM
same,Potency,[3],"inconclusive: 33.2 µM [falling, single point]"
Cc1[nH]c(C=C2C(=O)Nc3ccc(S(=O)(=O)N(C)c4cccc(Cl)c4)cc32)c(C)c1C(=O)N1CCN(C)CC1,Potency,[2],active: 23.5 µM
same,Potency,[5],active: 11.8 µM
same,Potency,[3],inconclusive: 18.7 µM
CCOC(=O)C1=C(C)NC(=S)NC1c1cccc(O)c1 (stereo not drawn),Potency,[2],"inconclusive: 0.132 µM [cytotoxic, full curve]"
same,Potency,[3],"inconclusive: 0.0743 µM [falling, full curve]"
Cc1ccc(NC(=O)c2ccc(CN3CCN(C)CC3)cc2)cc1Nc1nc(-c2cccnc2)cs1,Potency,[6],"inconclusive: 29.6 µM [cytotoxic, partial curve, poor fit]"
same,Potency,[3],"inconclusive: 20.9 µM [falling, partial curve]"
COCCCOc1ccnc(CS(=O)c2nc3ccccc3[nH]2)c1C (stereo not drawn),Potency,[9],inactive
same,Potency,[5],inactive
same,Potency,[8],inactive
same,Potency,7G8,"inconclusive: 11.2 µM [inhibitor, single point]"
COc1cc2c(N3CCN(C(=O)Nc4ccc(OC(C)C)cc4)CC3)ncnc2cc1OCCCN1CCCCC1,Potency,[2],"inconclusive: 23.5 µM [cytotoxic, single point]"
same,Potency,[6],"inconclusive: 33.2 µM [cytotoxic, single point]"
same,Potency,[7],"inconclusive: 23.5 µM [cytotoxic, partial curve, poor fit]"
same,Potency,[3],inconclusive: 37.2 µM [single point]
CC(C)C[C@H](NC(=O)[C@@H](NC(=O)c1cccc(-c2ccccc2)n1)[C@@H](C)O)B(O)O,Potency,[2],active: 0.0526 µM
same,Potency,[7],active: 0.0148 µM
same,Potency,[3],active: 0.469 µM
Nc1nc(=S)c2[nH]cnc2[nH]1,Potency,[9],active: 7.43 µM
same,Potency,[2],active: 4.69 µM
same,Potency,[5],active: 4.18 µM
same,Potency,[3],"inconclusive: 4.18 µM [falling, full curve]"
COC(=O)C1=C(C)NC(C)=C(C(=O)OC(C)C)C1c1cccc2nonc12 (stereo not drawn),Potency,[2],"inconclusive: 23.5 µM [cytotoxic, single point]"
same,Potency,[5],"inconclusive: 33.2 µM [cytotoxic, partial curve, poor fit]"
same,Potency,[7],"inconclusive: 8.33 µM [cytotoxic, single point]"
same,Potency,[3],"inconclusive: 10.5 µM [falling, full curve]"
NCC(=O)Nc1ccc(-n2nc(C(F)(F)F)cc2-c2ccc3c(ccc4ccccc43)c2)cc1,Potency,[2],"inconclusive: 29.6 µM [cytotoxic, single point]"
same,Potency,[6],"inconclusive: 37.2 µM [cytotoxic, single point]"
same,Potency,[5],"inconclusive: 29.6 µM [cytotoxic, single point]"
same,Potency,[3],"inconclusive: 23.5 µM [falling, partial curve]"
COc1cc2ncnc(Nc3cc(Br)c(O)c(Br)c3)c2cc1OC,Potency,[6],"inconclusive: 37.2 µM [cytotoxic, single point]"
same,Potency,[5],"inconclusive: 23.5 µM [cytotoxic, single point]"
same,Potency,[3],"inconclusive: 0.0332 µM [falling, full curve]"
Cc1cnc(Nc2cccc(CN3CCOCC3)c2)nc1Nc1cccc(S(=O)(=O)NC(C)(C)C)c1,Potency,[2],"inconclusive: 5.9 µM [cytotoxic, full curve]"
same,Potency,[6],active: 9.35 µM
same,Potency,[7],"inconclusive: 1.66 µM [cytotoxic, full curve]"
same,Potency,[3],"inconclusive: 11.8 µM [falling, partial curve]"
COc1cccc2c1C(=O)c1c(O)c3c(c(O)c1C2=O)C[C@@](O)(C(=O)CO)C[C@@H]3O[C@H]1C[C@H](N)[C@@H](O)[C@H](C)O1,Potency,[9],active: 0.209 µM
same,Potency,[3],"inconclusive: 1.48 µM [falling, full curve]"

# Part of the list above, with tabs.
structure (smiles)	measurement	setting	value
Cc1cccc(Nc2nc(N[C@@H]3CCCC[C@H]3N)ncc2C(N)=O)c1	Potency	[2]	inconclusive: 33.2 µM [cytotoxic, single point]
same	Potency	[6]	inconclusive: 29.6 µM [cytotoxic, single point]
same	Potency	[7]	inconclusive: 33.2 µM [cytotoxic, single point]
same	Potency	[3]	inconclusive: 5.26 µM [falling, partial curve]
